For six molecules, binding results are on record in paper PMC10468069.

Protein sequences, listed by entry. Tags and fused reporters are not part of them.
UniProt P53894: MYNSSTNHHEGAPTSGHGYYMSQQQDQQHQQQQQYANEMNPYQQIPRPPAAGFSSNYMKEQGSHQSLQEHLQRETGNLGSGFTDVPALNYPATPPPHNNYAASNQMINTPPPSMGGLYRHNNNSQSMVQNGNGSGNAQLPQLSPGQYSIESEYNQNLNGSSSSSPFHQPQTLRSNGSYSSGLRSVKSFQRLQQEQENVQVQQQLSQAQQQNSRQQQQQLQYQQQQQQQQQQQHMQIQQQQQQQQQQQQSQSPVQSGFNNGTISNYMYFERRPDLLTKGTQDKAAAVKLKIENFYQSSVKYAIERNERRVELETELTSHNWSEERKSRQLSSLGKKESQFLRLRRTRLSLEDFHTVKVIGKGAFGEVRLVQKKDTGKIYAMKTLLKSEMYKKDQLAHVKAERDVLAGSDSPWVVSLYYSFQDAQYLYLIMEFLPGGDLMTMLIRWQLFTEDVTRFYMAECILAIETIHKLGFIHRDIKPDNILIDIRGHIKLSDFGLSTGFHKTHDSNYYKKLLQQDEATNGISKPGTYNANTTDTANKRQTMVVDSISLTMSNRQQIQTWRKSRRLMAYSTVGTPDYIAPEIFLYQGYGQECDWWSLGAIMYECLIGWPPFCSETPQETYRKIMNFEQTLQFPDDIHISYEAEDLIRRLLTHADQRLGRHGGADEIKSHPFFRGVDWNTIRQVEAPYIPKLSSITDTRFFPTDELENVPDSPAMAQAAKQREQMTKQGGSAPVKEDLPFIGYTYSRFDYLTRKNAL

These are yes or no findings as the source states them, for the method shown. In cells and extracts the contact can be indirect. These calls come from enrichment with a bait or labelling near it, and not all partners need be listed.

To fix the notation:
B1: Kin2 (enzyme, UniProt P13186 1-1147)
chain: MPNPNTADYLVNPNFRTSKGGSLSPTPEAFNDTRVAAPATLRMMGKQSGPRNDQQQAPLMPPADIKQGKEQAAQRQNDASRPNGAVELRQFHRRSLGDWEFLETVGAGSMGKVKLVKHRQTKEICVIKIVNRASKAYLHKQHSLPSPKNESEILERQKRLEKEIARDKRTVREASLGQILYHPHICRLFEMCTMSNHFYMLFEYVSGGQLLDYIIQHGSLKEHHARKFARGIASALQYLHANNIVHRDLKIENIMISSSGEIKIIDFGLSNIFDYRKQLHTFCGSLYFAAPELLKAQPYTGPEVDIWSFGIVLYVLVCGKVPFDDENSSILHEKIKKGKVDYPSHLSIEVISLLTRMIVVDPLRRATLKNVVEHPWMNRGYDFKAPSYVPNRVPLTPEMIDSQVLKEMYRLEFIDDIEDTRRSLIRLVTEKEYIQLSQEYWDKLSNAKGLSSSLNNNYLNSTAQQTLIQNHITSNPSQSGYNEPDSNFEDPTLAYHPLLSIYHLVSEMVARKLAKLQRRQALALQAQAQQRQQQQQVALGTKVALNNNSPDIMTKMRSPQKEVVPNPGIFQVPAIGTSGTSNNTNTSNKPPLHVMVPPKLTIPEQAHTSPTSRKSSDIHTELNGVLKSTPVPVSGEYQQRSASPVVGEHQEKNTIGGIFRRISQSGQSQHPTRQQEPLPEREPPTYMSKSNEISIKVPKSHSRTISDYIPSARRYPSYVPNSVDVKQKPAKNTTIAPPIRSVSQKQNSDLPALPQNAELIVQKQRQKLLQENLDKLQINDNDNNNVNAVVDGINNDNSDHYLSVPKGRKLHPSARAKSVGHARRESLKFTRPPIPAALPPSDMTNDNGFLGEANKERYNPVSSNFSTVPEDSTTYSNDTNNRLTSVYSQELTEKQILEEASKAPPGSMPSIDYPKSMFLKGFFSVQTTSSKPLPIVRHNIISVLTRMNIDFKEVKGGFICVQQRPSIETAAVPVITTTGVGLDSGKAMDLQNSLDSQLSSSYHSTASSASRNSSIKRQGSYKRGQNNIPLTPLATNTHQRNSSIPMSPNYGNQSNGTSGELSSMSLDYVQQQDDILTTSRAQNINNVNGQTEQTNTSGIKERPPIKFEIHIVKVRIVGLAGVHFKKVSGNTWLYKELASYILKELNL
B2: Sog2 (protein, UniProt Q08817 1-791)
chain: MVATSSKRTLDPKEEHLPADKTSTNSSNTIISELATQEKSSSSGTTLKLIALNIKSISDEDVGYIQNVERLSLRKNHLTSLPASFKRLSRLQYLDLHNNNFKEIPYILTQCPQLEILDLSSNEIEALPDEISSFWQDNIRVLSLKDNNVTSIRNLKSITKLNKLSILDLEDNKIPKEELDQVQSYTPFHTGIPKEEYWAIAISRYLKDHPNLPTPEPKISRAAKRMGFINTNLSNGAMNENNIISLAPSANTTISASTAMVSSNQTSATSFSGTVNAESEQSGAVNGTELYNHTKYNDYFKRLSILPEESMSNGHQKISHAELVVSCRKLLFSFTECQQAIRKIASFCKEKAVAVNVVSLLYSVRSHTDNLVEVLQQTENEDESHDQALIKLCLTIITNFKQIITLLRKNFEIFFKEDDLCFIRMFYMTLMCAYMEMYNAWSFIKEDDQVSGSASKAPKKHSFSRHETSSSSITSGGGPAASTTSTHCSGNIKLLPKTRSTRTPSASALLSNSNILTGDTTAVPLLSPNLNGAHTHGPILGHQNAISNGSSQTNMNEVKTTSDTIPRQQLLQHNKSISDSKKESQAHEPKQHPVMTSSIINASNSNNVSNVNITPPPMNGGGAANSSANVVETNIDIQLYQTLSTVVKMVSVVYNQLTSEISKIAIASTMGKQILTDSLAPKIRDLTETCRQAMDLSKQLNERLNVLIPNDSNSEKYLTSLEKLKTWEIMNSFLKVIISILANTKIVMSDVPNLNELRPNLANLAKITKDVTVILDLSSYKAVSVSANSPE
B3: Kin1 (enzyme, UniProt P13185 1-1064)
chain: MDDYHVNTAFSMGRGNQQDDGNSESNSMHTQPSTMAPATLRMMGKSPQQQQQQNTPLMPPADIKYANNGNSHQAEQKERQVELEGKSRENAPKPNTTSQSRVSSSQGMPKQFHRKSLGDWEFVETVGAGSMGKVKLAKHRYTNEVCAVKIVNRATKAFLHKEQMLPPPKNEQDVLERQKKLEKEISRDKRTIREASLGQILYHPHICRLFEMCTLSNHFYMLFEYVSGGQLLDYIIQHGSIREHQARKFARGIASALIYLHANNIVHRDLKIENIMISDSSEIKIIDFGLSNIYDSRKQLHTFCGSLYFAAPELLKANPYTGPEVDVWSFGVVLFVLVCGKVPFDDENSSVLHEKIKQGKVEYPQHLSIEVISLLSKMLVVDPKRRATLKQVVEHHWMVRGFNGPPPSYLPKRVPLTIEMLDINVLKEMYRLEFIDDVEETRSVLVSIITDPTYVLLSRQYWTLAAKMNAESSDNGNAPNITESFEDPTRAYHPMISIYYLTSEMLDRKHAKIRNQQQRQSHENIEKLSEIPESVKQRDVEVNTTAMKSEPEATLATKDTSVPFTPKNSDGTEPPLHVLIPPRLAMPEQAHTSPTSRKSSDNQRREMEYALSPTPQGNDYQQFRVPSTTGDPSEKAKFGNIFRKLSQRRKKTIEQTSVNSNNSINKPVQKTHSRAVSDFVPGFAKPSYDSNYTMNEPVKTNDSRGGNKGDFPALPADAENMVEKQREKQIEEDIMKLHDINKQNNEVAKGSGREAYAAQKFEGSDDDENHPLPPLNVAKGRKLHPSARAKSVGHARRESLKYMRPPMPSSAYPQQELIDTGFLESSDDNKSDSLGNVTSQTNDSVSVHSVNAHINSPSVEKELTDEEILQEASRAPAGSMPSIDFPRSLFLKGFFSVQTTSSKPLPIVRYKIMFVLRKMNIEFKEVKGGFVCMQRFSSNNVAAKREGTPRSIMPLSHHESIRRQGSNKYSPSSPLTTNSIHQRKTSITETYGDDKHSGTSLENIHQQGDGSEGMTTTEKEPIKFEIHIVKVRIVGLAGVHFKKISGNTWLYKELASSILKELKL
B4: Mob2 (protein, UniProt P43563 1-287)
chain: MSFFNFKAFGRNSKKNKNQPLNVAQPPAMNTIYSSPHSSNSRLSLRNKHHSPKRHSQTSFPAQKSTPQSQQLTSTTPQSQQQEASERSESQQIMFLSEPFVRTALVKGSFKTIVQLPKYVDLGEWIALNVFEFFTNLNQFYGVVAEYVTPDAYPTMNAGPHTDYLWLDANNRQVSLPASQYIDLALTWINNKVNDKNLFPTKNGLPFPQQFSRDVQRIMVQMFRIFAHIYHHHFDKIVHLSLEAHWNSFFSHFISFAKEFKIIDRKEMAPLLPLIESFEKQGKIIYN
B5: Lst8 (protein, UniProt P41318 1-303)
chain: MSVILVSAGYDHTIRFWEALTGVCSRTIQHSDSQVNRLEITNDKKLLATAGHQNVRLYDIRTTNPNPVASFEGHRGNVTSVSFQQDNRWMVTSSEDGTIKVWDVRSPSIPRNYKHNAPVNEVVIHPNQGELISCDRDGNIRIWDLGENQCTHQLTPEDDTSLQSLSMASDGSMLAAANTKGNCYVWEMPNHTDASHLKPVTKFRAHSTYITRILLSSDVKHLATCSADHTARVWSIDDDFKLETTLDGHQRWVWDCAFSADSAYLVTASSDHYVRLWDLSTREIVRQYGGHHKGAVCVALNDV
B6: Yol036w (protein, UniProt Q08206 1-761)
chain: MEHQDSSPPRFRNSGSNRVTVYNGTTLPTMPKSATPTSSSTTVTTHLQNIKEEETNDDELTQVDRSSPRVLGRISSTSSSSSNIDLRDNLDMLHEIEKSNTNISLSAPNLHEELGVLSDKGNSKEELALLPPLPHTGEMEITPQFDINEAIFERDDISHSSRLEPDDVLTKLANSTRDATGEDQGFVVMTHGHDASTNDDSQLSATILDNQTSFDLSKALEMTSHSNISNIINSSGSEGRRSRTPVSNSTLKPNLSSPESAEREANTTSSSSTSDHGATMQYDPKKIITPIPVLPSSVREQQQNNAPLRERSRSNSSALASTLRDTIISGLPQNINSVERKLSRKSNRSRKNTVTFEDRLQKLPPLSTQISNQYAKVAPAENNIALHFHNLPTPVSNTQTPVTFQSESGLTGGEKKMPFLRRASSALLRKTSAKNCSNLTRTNTPTLSTSSTFESDLNARQPMLIRRSSTIDNKLPRRQLSCSKLYSRLNSDSKFANSSRASEEVLVSTPNDTEHVYRKTSLGSKIKRGFTRILSDSNNSKEILTLSPKSMVTTGPTELSFSSLSTVGGHPTTPVSKENDRVSIDGVSTFNRASTSLPESSTDDISPLREEGKINVPKRTSSRKILSKNSSKKNVLPEQQTKPSEIYLDKEALQSFVPVLSVTEGTHRINRSSLQTQSTIGLCITNLRNKEGMKLNAKEYVEILAQQQRKEDERYAVLERKFASCRWCSDKDLQYLKKKRISMNKIWSDYVRFYRGKLNNP

The test has as its target Cbk1-GFP (S. cerevisiae) (UniProt P53894). Kind of test: affinity purification with mass spectrometry; Cbk1-GFP immunoprecipitated on GFP-Trap Magnetic beads from extracts of cdc15-2 (with or without rapamycin) and TOR1-1 cdc15-2 (with rapamycin) cells arrested in late anaphase at 37 °C; three biological replicates against untagged control cells; spectral counts, SAINT.
For the molecule B1, the binding result is “binds”.

On to B2, for which the binding entry was “binds”.

For B3, the binding result is listed as “binds”.

B4: the binding entry is on record as “binds”.

Turning to B5, the binding result is “binds”.

Consider B6, for which the binding result was “binds”.
